Source: the supplement of paper PMC6078165

System: MDAMB468
Assay: relative JC-1 red fluorescence (viability) vs pre-drug, coculture with fibroblast (fraction); higher = more viable cancer cells
Method: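 JC-1 labelled TNBC cells cocultured 1:1 (1,500 cells each) with CellTrace Violet stained primary or stromal fibroblasts in 384-well plates in FluoroBrite medium, treated with one of 42 anticancer drugs at 0.1, 1, 10 or 100 uM. JC-1 red fluorescence (mitochondrial integrity in cancer cells only) was read by plate reader every 8 h for 72 h. Values are normalised to each well's pre-drug value. The stock of one drug was tenfold lower, so its dose labels may be too high.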

O=C(O)CCCc1ccc(N(CCCl)CCCl)cc1 [Chlorambucil]
relative JC-1 red fluorescence
Settings	8 h	16 h	24 h	32 h	40 h	48 h	56 h	64 h	72 h
0.1 µM, coculture fibroblast: C12385	0.8282	0.837	0.852	0.836	0.829	0.874	0.856	0.872	0.886
0.1 µM, coculture fibroblast: H6013	0.854	0.848	0.818	0.822	0.815	0.842	0.829	0.827	0.78
0.1 µM, coculture fibroblast: H6019	0.844	0.844	0.8398	0.832	0.809	0.8174	0.7756	0.7596	0.7379
0.1 µM, coculture fibroblast: H6076	0.92079	0.958	0.916	0.926	0.864	0.87	0.861	0.86	0.913
0.1 µM, coculture fibroblast: H6231	0.785	0.9018	0.821	0.812	0.75	0.741	0.694	0.664	0.666
0.1 µM, coculture fibroblast: HADF	0.858	0.838	0.792	0.783	0.755	0.767	0.735	0.743	0.696
0.1 µM, coculture fibroblast: HCFa	0.881	0.865	0.8133	0.792	0.7465	0.7555	0.711	0.682	0.637
0.1 µM, coculture fibroblast: HCPF	0.8281	0.9016	0.855	0.848	0.793	0.77	0.722	0.724	0.718
0.1 µM, coculture fibroblast: HHSteC	0.907	0.88	0.854	0.822	0.785	0.8	0.75	0.729	0.685
0.1 µM, coculture fibroblast: HMF	0.8575	0.955	0.921	0.917	0.853	0.838	0.797	0.786	0.783
0.1 µM, coculture fibroblast: HPFa	0.895	0.8635	0.834	0.7735	0.7575	0.764	0.702	0.68	0.603
0.1 µM, coculture fibroblast: HUF	0.863	0.829	0.8079	0.7505	0.73	0.738	0.704	0.705	0.701
0.1 µM, coculture fibroblast: Hs5	0.958	0.929	0.901	0.873	0.837	0.816	0.795	0.764	0.783
0.1 µM, coculture fibroblast: Hs27A	0.836	0.86	0.798	0.801	0.774	0.785	0.766	0.754	0.699
0.1 µM, coculture fibroblast: Hs343T	0.856	0.937	0.891	0.87	0.804	0.7853	0.7451	0.744	0.739
0.1 µM, coculture fibroblast: WS1	0.833	0.79	0.795	0.762	0.735	0.751	0.747	0.765	0.773
1 µM, coculture fibroblast: C12385	0.88	0.8284	0.784	0.716	0.663	0.64	0.595	0.561	0.546
1 µM, coculture fibroblast: H6013	0.879	0.8364	0.782	0.761	0.723	0.722	0.689	0.667	0.629
1 µM, coculture fibroblast: H6019	0.848	0.783	0.748	0.688	0.645	0.622	0.57	0.525	0.494
1 µM, coculture fibroblast: H6076	0.939	0.895	0.893	0.894	0.823	0.8067	0.76	0.741	0.786
1 µM, coculture fibroblast: H6231	0.8311	0.934	0.827	0.807	0.7553	0.7382	0.6884	0.662	0.637
1 µM, coculture fibroblast: HADF	0.8946	0.845	0.791	0.773	0.721	0.714	0.673	0.655	0.609
1 µM, coculture fibroblast: HCFa	0.869	0.8062	0.783	0.763	0.699	0.697	0.643	0.611	0.562
1 µM, coculture fibroblast: HCPF	0.884	0.94	0.84	0.838	0.769	0.746	0.6988	0.6765	0.6758
1 µM, coculture fibroblast: HHSteC	0.92	0.892	0.879	0.851	0.816	0.822	0.766	0.741	0.687
1 µM, coculture fibroblast: HMF	0.8573	0.932	0.847	0.823	0.7606	0.7458	0.704	0.691	0.679
1 µM, coculture fibroblast: HPFa	0.945	0.934	0.872	0.819	0.786	0.778	0.702	0.661	0.583
1 µM, coculture fibroblast: HUF	0.928	0.839	0.793	0.723	0.681	0.66	0.618	0.603	0.586
1 µM, coculture fibroblast: Hs5	0.826	0.933	0.963	0.94	0.868	0.834	0.771	0.731	0.726
1 µM, coculture fibroblast: Hs27A	0.865	0.802	0.784	0.78	0.721	0.707	0.661	0.629	0.589
1 µM, coculture fibroblast: Hs343T	0.893	0.943	0.859	0.829	0.75	0.724	0.66	0.638	0.615
1 µM, coculture fibroblast: WS1	0.89359	0.832	0.784	0.716	0.671	0.641	0.613	0.584	0.575
10 µM, coculture fibroblast: C12385	0.842	0.769	0.7112	0.643	0.5891	0.57	0.523	0.489	0.46
10 µM, coculture fibroblast: H6013	0.8596	0.8348	0.78176	0.7599	0.7197	0.7282	0.697	0.6741	0.6331
10 µM, coculture fibroblast: H6019	0.8391	0.806	0.771	0.722	0.683	0.675	0.632	0.599	0.581
10 µM, coculture fibroblast: H6076	0.898	0.948	0.911	0.912	0.857	0.847	0.807	0.801	0.83
10 µM, coculture fibroblast: H6231	0.834	0.9245	0.87	0.854	0.797	0.768	0.711	0.679	0.67
10 µM, coculture fibroblast: HADF	0.858	0.836	0.781	0.759	0.69	0.68	0.624	0.609	0.569
10 µM, coculture fibroblast: HCFa	0.8562	0.817	0.735	0.694	0.629	0.611	0.558	0.521	0.491
10 µM, coculture fibroblast: HCPF	0.8533	0.888	0.889	0.865	0.797	0.7688	0.7152	0.696	0.675
10 µM, coculture fibroblast: HHSteC	0.8759	0.835	0.788	0.749	0.706	0.706	0.644	0.614	0.567
10 µM, coculture fibroblast: HMF	0.823	0.974	0.883	0.842	0.775	0.755	0.699	0.673	0.646
10 µM, coculture fibroblast: HPFa	0.8957	0.889	0.847	0.802	0.763	0.758	0.687	0.659	0.59
10 µM, coculture fibroblast: HUF	0.877	0.79	0.741	0.679	0.635	0.604	0.558	0.532	0.51
10 µM, coculture fibroblast: Hs5	0.947	0.914	0.852	0.82	0.752	0.718	0.683	0.646	0.665
10 µM, coculture fibroblast: Hs27A	0.8407	0.803	0.736	0.7328	0.663	0.657	0.608	0.578	0.543
10 µM, coculture fibroblast: Hs343T	0.857	0.939	0.8735	0.8498	0.775	0.745	0.6925	0.677	0.647
10 µM, coculture fibroblast: WS1	0.82	0.754	0.7038	0.6473	0.594	0.565	0.524	0.494	0.474
100 µM, coculture fibroblast: C12385	0.8939	0.8315	0.7814	0.7236	0.661	0.634	0.566	0.507	0.48
100 µM, coculture fibroblast: H6013	0.8957	0.849	0.812	0.792	0.756	0.75	0.718	0.693	0.629
100 µM, coculture fibroblast: H6019	0.85	0.779	0.7479	0.667	0.6	0.552	0.481	0.428	0.407
100 µM, coculture fibroblast: H6076	0.927	0.929	0.886	0.92	0.844	0.838	0.806	0.787	0.864
100 µM, coculture fibroblast: H6231	0.872	0.955	0.885	0.892	0.826	0.811	0.772	0.738	0.743
100 µM, coculture fibroblast: HADF	0.909	0.872	0.79	0.78	0.715	0.6854	0.629	0.5929	0.521
100 µM, coculture fibroblast: HCFa	0.889	0.8	0.774	0.737	0.6579	0.642	0.581	0.536	0.473
100 µM, coculture fibroblast: HCPF	0.881	0.82	0.882	0.857	0.785	0.76	0.712	0.696	0.678
100 µM, coculture fibroblast: HHSteC	0.907	0.854	0.814	0.77	0.721	0.725	0.663	0.632	0.577
100 µM, coculture fibroblast: HMF	0.906	0.855	0.938	0.933	0.866	0.8573	0.799	0.7822	0.778
100 µM, coculture fibroblast: HPFa	0.934	0.866	0.78	0.707	0.64	0.612	0.545	0.514	0.447
100 µM, coculture fibroblast: HUF	0.9251	0.843	0.777	0.7032	0.651	0.599	0.5417	0.514	0.485
100 µM, coculture fibroblast: Hs5	0.946	0.92	0.9008	0.8953	0.817	0.788	0.739	0.6915	0.718
100 µM, coculture fibroblast: Hs27A	0.8569	0.782	0.761	0.744	0.684	0.674	0.631	0.607	0.559
100 µM, coculture fibroblast: Hs343T	0.895	0.784	0.886	0.899	0.886	0.874	0.817	0.794	0.77
100 µM, coculture fibroblast: WS1	0.8783	0.83	0.759	0.66	0.605	0.557	0.514	0.462	0.431

The reference is the same well before dosing, and untreated signal decays as well.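 Fibroblast labels name human fibroblasts: mostly primary ones from tissues such as uterus (C12385, HUF), lung (H6013), bone (Hs27A), adrenal (HADF) and skin (WS1), plus mammary HMF and breast cancer-associated Hs343T. The cancer cells are basal-like or mesenchymal-like triple-negative breast cancer lines. The paper calls a changed response a hit when it shifts by more than 3x the replicate standard deviation. The tissue of the other fibroblasts is not given here.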
